These are yes or no findings as the source states them, for the method shown. Some entries that bind do so weakly or less than the wild type.
Target: T1, LexA protein, P0A7C2
T1 chain: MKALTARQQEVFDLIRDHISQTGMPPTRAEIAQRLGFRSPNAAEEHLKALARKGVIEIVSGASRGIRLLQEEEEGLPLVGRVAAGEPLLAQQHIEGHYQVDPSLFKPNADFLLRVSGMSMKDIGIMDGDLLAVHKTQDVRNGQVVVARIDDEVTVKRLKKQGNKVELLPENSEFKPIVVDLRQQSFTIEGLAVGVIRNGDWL
Test: cross-linking; glutaraldehyde cross-linking of a single protein, SDS-PAGE; LexA as dimerisation-positive control; both purified
Details: remark: other sources report otherwise

- binding: binds
B1: LexA protein, P0A7C2 1-202 (protein)
chain: T1 chain

Source: paper PMC3917654
